One molecule from article PMC11715466 can be followed below.

Chains of the proteins cited; added tags and fusions are not shown.
UniProt O54857: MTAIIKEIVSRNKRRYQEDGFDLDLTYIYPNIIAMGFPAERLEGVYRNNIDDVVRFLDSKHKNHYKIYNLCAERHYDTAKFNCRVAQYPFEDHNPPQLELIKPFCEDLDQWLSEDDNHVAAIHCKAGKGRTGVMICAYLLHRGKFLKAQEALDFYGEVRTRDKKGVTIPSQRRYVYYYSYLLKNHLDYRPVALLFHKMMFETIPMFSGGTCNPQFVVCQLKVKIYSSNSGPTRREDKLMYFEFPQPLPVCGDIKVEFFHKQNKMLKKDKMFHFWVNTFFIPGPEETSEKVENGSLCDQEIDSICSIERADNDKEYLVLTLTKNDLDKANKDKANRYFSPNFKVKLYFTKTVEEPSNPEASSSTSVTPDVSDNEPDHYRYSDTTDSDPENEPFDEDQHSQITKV

Results are given in words; binding and its absence hold for the method and conditions named. Binding seen in cells or lysates may run through a third protein. Some entries that bind do so weakly or less than the wild type.

The assay has as its target Phosphatase and Tensin Homolog (rat (endogenous in PC12)) (UniProt O54857). The assay can be described thus: co-IP; Q74 PC12 cell lysate incubated overnight at 4 °C with antibody cross-linked to AminoLink coupling resin; eluate analysed by western blot.

B1: Ubiquitin specific peptidase 11 (enzyme, UniProt Q5D006 1-921)
chain: MAAVAADPAAAAVPASAEDRETQPEAMPDLDQQWRQIGNGRERPLRAGESWFLVEKHWYKQWEAYVKGGDQDASTFPGSINNSGLFEDQISWHLRERLVEGDDYVLLPAPAWNYLVSWYGLKDDQPPIERKVIELPGIRKVEVYPIELLLVQHSDMETALTIQFSYSDSVDLVLQTAREQFLVEPQEDTRLWTKNSEGSLDRLCNTQITLLDACLETGQLVIMETRNKDGTWPSAQLCGMNNMPDEDEDFQGQPGICGLTNLGNTCFMNSALQCLSNVPQLTEYFLNNRYLEELNFRNPLGMKGELAEAYADLVKQTWSGYHRSIVPNVFKNKVGHFASQFLGYQQHDSQELLSFLLDGLHEDLNRVKKKEYVELCNGAGRPDLEVAQEAWQNHKRRNDSVIVDTFHGLFKSTLVCPDCGNVSVTFDPFCYLSVPLPVCSRRVLEVFFVPMDPRRKPEQHRVVVPKKGNISDLCVALSTHTSVAPDKMIVADVFSHRFYKLYQLEDPLSGILDRDDIFVYEVTGRIEPVEGSRDDIVVPVYLRERTPSRDYNNSYYGLILFGHPLLVSVPRDRFSWEGLYNILMYRLSRYVTKPTSDDDDGDEKGDENEDEDVEDDSSSEEEKEEMSGPTDNDGTQESEQEQAGTSSGVTGRCPSLLDNSLHTSQWPPRRRRKQLFTLQTVNSNGTSDRTTSPEEAQTQPYIAMDWEPEMKRRYYDEVEAEGYVKHDCVGYMLKKNPVQLKECIKLFTTVETLEKENPWYCSSCKQHQLATKKLDLWMLPEVLIIHLKRFSFSKFSREKLDTLVQFPIRDLDFSEFVIKPKNESAPDLYKYDLIAVSNHYGGMRDGHYTTFACNKDSGQWHYFDDNSVSPVNENQIESKAAYVLFYQRQDVGRRQSQTASSETPTSPASSSTPNSDIMDVN
Turning to B1, the binding result is “binds”.
